The results in this text go back to article PMC1904221.

Assay [1] has as its target PedB, pediocin-like immunity protein conferring immunity to pediocin PP-1 (Pediococcus pentosaceus CBT-8) (Pediococcus pentosaceus CBT-8) (UniProt P36496). Nature of the assay: SEC; gel filtration of purified recombinant PedB on Superdex 75 16/60, 20 mM Tris-HCl pH 8.0, 150 mM NaCl, against low molecular mass standards (Kav); both purified. (In general: SEC sorts molecules by how far they enter the pores of the column.)

For assay [2] the target is unchanged. Kind of assay: crystal structure; native PedB crystals, space group P6(2), one molecule in the asymmetric unit, 1.6 Å; crystal packing inspected; both purified.

No constants are given. Whether binding was seen depends on the method and setting.

B1: PedB, pediocin-like immunity protein conferring immunity to pediocin PP-1 (Pediococcus pentosaceus CBT-8) (protein, UniProt P36496 1-112)
chain: MNKTKSEHIKQQALDLFTRLQFLLQKHDTIEPYQYVLDILETGISKTKHNQQTPERQARVVYNKIASQALVDKLHFTAEENKVLAAINELAHSQKGWGEFNMLETTNTWPSQ
Consider B1, for which the binding entry in assay [1] and in assay [2] was “no binding” throughout.
